For at least one compound, name, drawing or mass did not settle the structure.
Assay: Stability determination: API content by HPLC external standard method after 60 days
Format: physicochemical
Conditions: 60 days at 25±5° C., RH 60±10%

In the case of `CNC(=O)c1ccccc1Sc1ccc2c(/C=C/c3ccccn3)n[nH]c2c1` [Raw material, axitinib], the Peak area (HPLC 260 nm, filtrate of 0.45 μm membrane) is reported as 4687 and the Relative percentage (relative to external standard 0.1 mg/ml) is reported as 99.41%.

— patent US20220023213A1, “NANOCRYSTALLINE EYE DROP, PREPARATION METHOD AND USE THEREOF” (CHENGDU RUIMU PHARMACEUTICALS CO., LTD., priority 2018, published 2022)
